The supplement of paper PMC10849652
The list shows a part of the results.

Chains of the proteins cited; added tags and fusions are not shown. Lines headed by an entry give the natural chain unless they say otherwise; changes in a name come on top.
UniProt Q9NXE4: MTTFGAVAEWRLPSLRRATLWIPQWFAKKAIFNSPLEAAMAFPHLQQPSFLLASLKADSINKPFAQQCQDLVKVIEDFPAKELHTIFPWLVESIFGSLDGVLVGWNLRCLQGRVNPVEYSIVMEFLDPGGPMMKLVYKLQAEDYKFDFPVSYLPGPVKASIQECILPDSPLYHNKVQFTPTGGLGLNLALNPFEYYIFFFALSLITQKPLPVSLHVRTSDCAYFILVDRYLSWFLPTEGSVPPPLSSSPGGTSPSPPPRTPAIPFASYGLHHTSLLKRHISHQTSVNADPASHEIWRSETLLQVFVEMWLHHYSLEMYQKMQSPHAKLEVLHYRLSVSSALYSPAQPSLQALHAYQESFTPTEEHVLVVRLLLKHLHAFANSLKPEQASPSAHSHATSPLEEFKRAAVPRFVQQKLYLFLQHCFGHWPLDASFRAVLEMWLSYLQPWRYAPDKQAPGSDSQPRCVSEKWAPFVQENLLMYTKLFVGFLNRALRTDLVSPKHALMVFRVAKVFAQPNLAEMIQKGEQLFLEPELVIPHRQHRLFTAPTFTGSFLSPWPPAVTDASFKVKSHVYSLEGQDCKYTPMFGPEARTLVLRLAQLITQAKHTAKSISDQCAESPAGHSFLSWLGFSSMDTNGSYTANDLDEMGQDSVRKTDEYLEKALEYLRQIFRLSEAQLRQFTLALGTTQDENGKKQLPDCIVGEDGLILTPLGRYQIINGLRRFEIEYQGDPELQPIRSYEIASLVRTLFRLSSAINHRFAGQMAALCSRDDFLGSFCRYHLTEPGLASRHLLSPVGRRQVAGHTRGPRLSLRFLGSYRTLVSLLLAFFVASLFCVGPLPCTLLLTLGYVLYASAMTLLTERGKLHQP
UniProt Q9H0W8: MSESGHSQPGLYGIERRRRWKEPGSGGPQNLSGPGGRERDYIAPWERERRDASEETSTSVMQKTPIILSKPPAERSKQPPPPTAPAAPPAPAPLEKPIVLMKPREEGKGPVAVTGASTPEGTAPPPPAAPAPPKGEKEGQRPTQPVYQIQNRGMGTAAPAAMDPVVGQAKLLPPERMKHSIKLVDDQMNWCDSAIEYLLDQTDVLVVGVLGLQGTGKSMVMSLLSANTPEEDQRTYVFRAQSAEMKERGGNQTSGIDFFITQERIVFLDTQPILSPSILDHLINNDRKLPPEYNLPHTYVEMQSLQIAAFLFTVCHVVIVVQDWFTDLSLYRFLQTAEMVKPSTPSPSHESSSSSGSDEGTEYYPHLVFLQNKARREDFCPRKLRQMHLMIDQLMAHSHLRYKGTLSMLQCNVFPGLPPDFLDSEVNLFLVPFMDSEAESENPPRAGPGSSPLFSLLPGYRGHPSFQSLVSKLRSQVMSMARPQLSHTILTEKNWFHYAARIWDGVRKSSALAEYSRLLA
UniProt P0C7P3: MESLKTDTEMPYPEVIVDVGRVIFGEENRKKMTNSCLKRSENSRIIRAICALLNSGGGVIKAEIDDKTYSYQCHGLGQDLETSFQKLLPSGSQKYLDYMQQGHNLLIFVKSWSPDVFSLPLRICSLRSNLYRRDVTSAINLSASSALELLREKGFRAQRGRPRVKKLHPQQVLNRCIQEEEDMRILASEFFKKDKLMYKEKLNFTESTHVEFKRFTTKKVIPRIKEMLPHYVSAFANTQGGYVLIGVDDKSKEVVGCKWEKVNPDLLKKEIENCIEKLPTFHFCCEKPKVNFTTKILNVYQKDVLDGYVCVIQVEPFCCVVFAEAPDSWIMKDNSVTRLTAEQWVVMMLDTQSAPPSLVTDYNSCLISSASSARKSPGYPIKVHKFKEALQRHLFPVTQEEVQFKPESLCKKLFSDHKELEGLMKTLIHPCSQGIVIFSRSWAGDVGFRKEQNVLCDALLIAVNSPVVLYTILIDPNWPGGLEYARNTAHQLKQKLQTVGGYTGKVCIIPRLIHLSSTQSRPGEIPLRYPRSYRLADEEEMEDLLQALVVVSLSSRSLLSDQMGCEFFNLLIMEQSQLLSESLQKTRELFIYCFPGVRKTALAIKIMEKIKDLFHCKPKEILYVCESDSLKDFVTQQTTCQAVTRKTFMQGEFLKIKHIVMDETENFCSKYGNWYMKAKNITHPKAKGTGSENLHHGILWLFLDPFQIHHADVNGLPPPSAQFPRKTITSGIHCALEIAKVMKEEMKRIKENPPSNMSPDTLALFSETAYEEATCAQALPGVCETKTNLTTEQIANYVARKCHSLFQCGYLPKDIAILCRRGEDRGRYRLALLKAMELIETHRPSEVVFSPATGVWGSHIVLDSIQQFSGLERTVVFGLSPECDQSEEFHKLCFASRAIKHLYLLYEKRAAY
UniProt B2RUZ4: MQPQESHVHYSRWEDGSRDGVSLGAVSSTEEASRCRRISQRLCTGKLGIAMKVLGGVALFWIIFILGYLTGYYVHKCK
UniProt Q8TEV9: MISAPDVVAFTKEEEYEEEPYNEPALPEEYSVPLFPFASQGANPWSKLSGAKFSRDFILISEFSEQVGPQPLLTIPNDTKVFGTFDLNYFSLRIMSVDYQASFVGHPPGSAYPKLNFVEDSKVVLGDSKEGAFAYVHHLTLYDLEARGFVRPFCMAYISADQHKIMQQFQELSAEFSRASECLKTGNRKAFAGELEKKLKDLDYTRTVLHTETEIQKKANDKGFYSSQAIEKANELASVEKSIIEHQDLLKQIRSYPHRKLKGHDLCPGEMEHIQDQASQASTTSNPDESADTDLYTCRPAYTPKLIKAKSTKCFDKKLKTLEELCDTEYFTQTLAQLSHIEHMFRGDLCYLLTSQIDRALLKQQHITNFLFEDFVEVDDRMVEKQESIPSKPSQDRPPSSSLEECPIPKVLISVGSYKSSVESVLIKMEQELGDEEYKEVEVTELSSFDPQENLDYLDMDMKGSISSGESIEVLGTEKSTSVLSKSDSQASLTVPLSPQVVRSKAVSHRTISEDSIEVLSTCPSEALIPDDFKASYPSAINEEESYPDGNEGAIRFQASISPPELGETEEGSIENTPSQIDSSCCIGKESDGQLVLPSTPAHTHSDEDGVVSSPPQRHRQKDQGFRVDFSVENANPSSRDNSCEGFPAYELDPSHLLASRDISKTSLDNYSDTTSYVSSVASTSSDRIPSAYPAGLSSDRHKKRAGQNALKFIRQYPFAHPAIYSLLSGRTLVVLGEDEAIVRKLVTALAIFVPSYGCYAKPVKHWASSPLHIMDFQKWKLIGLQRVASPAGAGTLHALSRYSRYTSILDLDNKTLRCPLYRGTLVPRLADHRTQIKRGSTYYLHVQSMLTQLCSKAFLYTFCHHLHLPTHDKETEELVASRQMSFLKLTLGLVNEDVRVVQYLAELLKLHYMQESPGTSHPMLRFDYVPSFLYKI
UniProt Q15796, whole entry, looked up: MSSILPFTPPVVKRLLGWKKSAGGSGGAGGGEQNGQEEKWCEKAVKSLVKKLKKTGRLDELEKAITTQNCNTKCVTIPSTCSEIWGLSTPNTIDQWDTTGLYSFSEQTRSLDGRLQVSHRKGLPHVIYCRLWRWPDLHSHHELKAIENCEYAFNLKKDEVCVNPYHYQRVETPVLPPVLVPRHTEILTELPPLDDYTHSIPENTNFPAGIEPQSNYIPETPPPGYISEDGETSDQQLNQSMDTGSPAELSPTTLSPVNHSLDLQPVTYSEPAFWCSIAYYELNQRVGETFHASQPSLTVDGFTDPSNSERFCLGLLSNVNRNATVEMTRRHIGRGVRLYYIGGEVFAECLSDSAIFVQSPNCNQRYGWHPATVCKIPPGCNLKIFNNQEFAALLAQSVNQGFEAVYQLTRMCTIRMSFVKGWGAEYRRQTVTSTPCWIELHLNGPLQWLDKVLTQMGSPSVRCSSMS
UniProt O60749: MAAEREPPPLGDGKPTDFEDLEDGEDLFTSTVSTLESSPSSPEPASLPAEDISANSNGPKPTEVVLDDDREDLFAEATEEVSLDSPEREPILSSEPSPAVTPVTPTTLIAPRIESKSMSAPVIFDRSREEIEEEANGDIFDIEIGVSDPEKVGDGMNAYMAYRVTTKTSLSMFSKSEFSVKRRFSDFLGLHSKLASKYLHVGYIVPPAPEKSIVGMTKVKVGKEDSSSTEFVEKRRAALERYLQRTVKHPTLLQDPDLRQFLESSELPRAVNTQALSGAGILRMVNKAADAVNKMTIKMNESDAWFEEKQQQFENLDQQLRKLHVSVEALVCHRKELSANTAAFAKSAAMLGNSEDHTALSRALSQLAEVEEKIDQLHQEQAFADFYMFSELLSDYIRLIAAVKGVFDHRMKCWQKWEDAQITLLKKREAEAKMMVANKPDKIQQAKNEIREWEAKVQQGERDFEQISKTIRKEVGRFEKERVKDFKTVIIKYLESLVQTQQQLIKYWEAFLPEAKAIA
UniProt Q7Z3B0: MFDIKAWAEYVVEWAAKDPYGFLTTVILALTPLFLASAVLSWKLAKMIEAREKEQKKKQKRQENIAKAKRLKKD
UniProt P19634, whole entry, looked up: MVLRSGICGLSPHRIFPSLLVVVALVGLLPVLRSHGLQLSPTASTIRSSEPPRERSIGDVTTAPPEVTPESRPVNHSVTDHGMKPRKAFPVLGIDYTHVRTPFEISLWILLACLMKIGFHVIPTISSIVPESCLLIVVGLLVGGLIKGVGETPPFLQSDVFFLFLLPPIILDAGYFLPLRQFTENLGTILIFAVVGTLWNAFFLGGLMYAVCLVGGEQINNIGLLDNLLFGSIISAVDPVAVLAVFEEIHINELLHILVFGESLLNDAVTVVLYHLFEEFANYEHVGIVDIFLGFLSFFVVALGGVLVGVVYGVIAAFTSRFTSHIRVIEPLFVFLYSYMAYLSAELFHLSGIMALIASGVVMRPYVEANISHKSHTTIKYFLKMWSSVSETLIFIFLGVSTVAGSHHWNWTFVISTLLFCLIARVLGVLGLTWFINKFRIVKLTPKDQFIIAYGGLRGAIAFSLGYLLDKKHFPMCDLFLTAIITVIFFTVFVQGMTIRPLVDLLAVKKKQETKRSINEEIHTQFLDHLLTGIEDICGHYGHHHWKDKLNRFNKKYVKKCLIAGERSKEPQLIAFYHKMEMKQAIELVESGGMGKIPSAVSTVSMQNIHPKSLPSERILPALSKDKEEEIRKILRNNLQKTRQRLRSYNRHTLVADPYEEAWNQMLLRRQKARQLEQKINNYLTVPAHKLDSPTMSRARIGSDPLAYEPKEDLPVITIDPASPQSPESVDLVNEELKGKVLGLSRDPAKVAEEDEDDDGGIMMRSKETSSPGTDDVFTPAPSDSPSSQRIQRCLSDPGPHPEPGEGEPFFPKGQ
UniProt Q8WVI0: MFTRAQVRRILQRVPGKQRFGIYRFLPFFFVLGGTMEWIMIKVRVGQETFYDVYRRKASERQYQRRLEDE
UniProt Q13424: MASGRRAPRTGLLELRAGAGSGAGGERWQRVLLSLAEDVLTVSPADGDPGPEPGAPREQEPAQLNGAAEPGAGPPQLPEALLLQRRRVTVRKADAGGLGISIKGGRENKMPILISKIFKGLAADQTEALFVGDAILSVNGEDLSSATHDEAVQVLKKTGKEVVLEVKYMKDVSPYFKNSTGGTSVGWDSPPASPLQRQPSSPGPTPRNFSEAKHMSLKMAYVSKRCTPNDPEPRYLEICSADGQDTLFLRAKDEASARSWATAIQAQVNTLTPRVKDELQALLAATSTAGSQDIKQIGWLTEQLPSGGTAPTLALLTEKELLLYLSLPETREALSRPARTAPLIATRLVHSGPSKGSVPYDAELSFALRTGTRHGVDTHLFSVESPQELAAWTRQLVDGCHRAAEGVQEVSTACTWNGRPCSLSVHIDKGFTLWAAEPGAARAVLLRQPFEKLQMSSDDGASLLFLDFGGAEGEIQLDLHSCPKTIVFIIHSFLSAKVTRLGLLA
UniProt Q9NRS6: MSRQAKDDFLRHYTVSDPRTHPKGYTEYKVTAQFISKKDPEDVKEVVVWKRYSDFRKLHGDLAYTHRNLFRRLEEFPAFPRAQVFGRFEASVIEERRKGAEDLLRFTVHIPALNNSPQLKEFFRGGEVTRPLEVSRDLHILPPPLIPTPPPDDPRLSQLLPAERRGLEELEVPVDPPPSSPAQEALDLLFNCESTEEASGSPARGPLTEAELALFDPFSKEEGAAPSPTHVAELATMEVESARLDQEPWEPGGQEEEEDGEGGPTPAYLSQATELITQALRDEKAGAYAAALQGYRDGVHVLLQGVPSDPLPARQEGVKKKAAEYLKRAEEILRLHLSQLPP
UniProt Q9H4I9: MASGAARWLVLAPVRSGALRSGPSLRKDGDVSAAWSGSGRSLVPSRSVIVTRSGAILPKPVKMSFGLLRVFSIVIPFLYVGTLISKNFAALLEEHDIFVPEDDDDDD
UniProt P58511: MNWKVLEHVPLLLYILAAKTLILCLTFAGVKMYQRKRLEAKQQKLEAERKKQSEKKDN
UniProt O75971: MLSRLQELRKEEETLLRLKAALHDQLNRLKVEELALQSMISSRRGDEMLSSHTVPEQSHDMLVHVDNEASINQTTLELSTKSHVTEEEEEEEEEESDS
UniProt Q9UMY4: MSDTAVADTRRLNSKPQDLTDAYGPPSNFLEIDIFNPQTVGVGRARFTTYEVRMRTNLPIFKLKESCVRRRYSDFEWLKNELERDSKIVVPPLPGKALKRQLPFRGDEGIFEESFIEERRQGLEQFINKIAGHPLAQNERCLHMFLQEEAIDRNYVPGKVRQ

Compound: C1COCCN1CCN2C3=CC=CC=C3N=C2NC(=O)C4=CC(=CC=C4)[N+](=O)[O-] [IRAK-1-4 Inhibitor I]
Assay: log2 fold change, soluble protein after heating vs DMSO (PISA); higher = thermal stabilisation; K562 cells, 10 uM, 30 min; active = over 0.2 and 3.5 SD of the protein, either way, in both replicates (recomputed)
Summary of the method: (§1)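 Values are thermal stability changes relative to control samples and are taken from duplicates. They are stated as log2 fold changes. Before quantification by TMTpro 16plex LC-MS/MS with equalised channel sums, K562 cells at 2×10^6 cells/mL were treated with 10 μM compound for 30 min, heated in aliquots for 3 min across 48°C-58°C, pooled, extracted in PBS with 0.5% NP-40 at 4°C, and centrifuged at 21,000xg for 90 min to give the soluble supernatant.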

Target	log2 fold change
SMARCD2 (UniProt Q92925)	inactive: -0.116
SMPD4 isoform 2 (UniProt Q9NXE4)	inactive: 0.016
SNX16 (UniProt P57768)	inactive: 0.014
SMG9 (UniProt Q9H0W8)	inactive: 0.015
SMU1 isoform 2 (UniProt Q2TAY7)	inactive: -0.035
SOX5 (UniProt P35711)	inactive: 0.067
SNX25 (UniProt Q9H3E2)	inactive: -0.032
SNRPN isoform 2 (UniProt P63162)	inactive: 0.026
SLFN14 (UniProt P0C7P3)	inactive: -0.674
SMG7 isoform 4 (UniProt Q92540)	inactive: -0.108
SMIM1 (UniProt B2RUZ4)	inactive: 0.142
SLC8B1 (UniProt Q6J4K2)	inactive: 0.096
SMCR8 (UniProt Q8TEV9)	inactive: 0.041
SMAD2 (UniProt Q15796)	inactive: -0.145
SNX27 (UniProt Q96L92)	inactive: -0.055
SMPD1 (UniProt P17405)	inactive: -0.169

Target	log2 fold change
SNX2 isoform 2 (UniProt O60749)	inactive: 0.091
SMIM15 (UniProt Q7Z3B0)	inactive: 0.001
SLC9A1 (UniProt P19634)	inactive: -0.017
SMIM4 (UniProt Q8WVI0)	inactive: -0.076
SNTA1 (UniProt Q13424)	inactive: -0.022
SP4 (UniProt Q02446)	inactive: 0.011
SNX19 (UniProt Q92543)	inactive: -0.059
SLPI (UniProt P03973)	inactive: -0.001
SNX15 (UniProt Q9NRS6)	inactive: -0.031
SP2 (UniProt Q02086)	inactive: -0.126
SMDT1 (UniProt Q9H4I9)	inactive: 0.039
SMIM11A (UniProt P58511)	inactive: 0.021
SNAPC5 (UniProt O75971)	inactive: -0.046
SNRPD2 (UniProt K7EJB5)	inactive: -0.124
SPAG9 isoform 4 (UniProt O60271)	inactive: -0.027
SNX12 isoform 1 (UniProt Q9UMY4)	inactive: 0.039

Compound: C=CC(=O)N1CCC[C@@H](n2nc(-c3ccc(Oc4ccccc4)cc3)c3c(N)ncnc32)C1 [ibrutinib]
Assay: as above
Summary of the method: as §1

Target	log2 fold change
SMPD4 isoform 2 (UniProt Q9NXE4)	inactive: -0.156
SNX16 (UniProt P57768)	inactive: 0.158
SMG9 (UniProt Q9H0W8)	inactive: -0.107
SMU1 isoform 2 (UniProt Q2TAY7)	inactive: -0.27
SOX5 (UniProt P35711)	inactive: 0.115
SLFN14 (UniProt P0C7P3)	inactive: 0.069
SMG7 isoform 4 (UniProt Q92540)	inactive: -0.108
SMIM1 (UniProt B2RUZ4)	inactive: -0.139
SLC8B1 (UniProt Q6J4K2)	inactive: -0.091
SMCR8 (UniProt Q8TEV9)	inactive: 0.13
SMAD2 (UniProt Q15796)	inactive: 0.05
SNX2 isoform 2 (UniProt O60749)	inactive: 0.151
SMIM15 (UniProt Q7Z3B0)	inactive: 0.176
SLC9A1 (UniProt P19634)	inactive: -0.001
SMIM4 (UniProt Q8WVI0)	inactive: 0.059
SNTA1 (UniProt Q13424)	inactive: 0
SNX15 (UniProt Q9NRS6)	inactive: -0.112
SMDT1 (UniProt Q9H4I9)	inactive: 0.036
SMIM11A (UniProt P58511)	inactive: 0.214
SNAPC5 (UniProt O75971)	inactive: -0.043
SNRPD2 (UniProt K7EJB5)	inactive: -0.095
SPAG9 isoform 4 (UniProt O60271)	inactive: 0.349
SNX12 isoform 1 (UniProt Q9UMY4)	inactive: -0.007

Compound: CC(=O)c1cnc2ccc(-c3cc(Cl)c(O)c(Cl)c3)nc2c1N[C@H]1CC[C@H](CN(C)C)CC1
Assay: as above
Summary of the method: as §1

Target	log2 fold change
SMARCD2 (UniProt Q92925)	inactive: -0.372
SMPD4 isoform 2 (UniProt Q9NXE4)	inactive: 0.196
SMG9 (UniProt Q9H0W8)	inactive: -0.065
SOX5 (UniProt P35711)	inactive: -0.028
SNX25 (UniProt Q9H3E2)	inactive: -0.115
SNRPN isoform 2 (UniProt P63162)	inactive: -0.132
SLFN14 (UniProt P0C7P3)	inactive: 0.276
SMIM1 (UniProt B2RUZ4)	inactive: 0.151
SLC8B1 (UniProt Q6J4K2)	inactive: 0.112
SMCR8 (UniProt Q8TEV9)	inactive: -0.133
SMAD2 (UniProt Q15796)	inactive: -0.091
SNX27 (UniProt Q96L92)	inactive: -0.084
SMPD1 (UniProt P17405)	inactive: 0.055
SNX2 isoform 2 (UniProt O60749)	inactive: -0.039
SMIM15 (UniProt Q7Z3B0)	inactive: -0.233
SLC9A1 (UniProt P19634)	inactive: 0.018
SMIM4 (UniProt Q8WVI0)	inactive: -0.054
SNTA1 (UniProt Q13424)	inactive: 0.057
SNX15 (UniProt Q9NRS6)	inactive: -0.111
SP2 (UniProt Q02086)	inactive: -0.472
SMDT1 (UniProt Q9H4I9)	inactive: -0.026
SNAPC5 (UniProt O75971)	inactive: 0.006
SNRPD2 (UniProt K7EJB5)	inactive: -0.004
SPAG9 isoform 4 (UniProt O60271)	inactive: 0.14
SNX12 isoform 1 (UniProt Q9UMY4)	inactive: -0.069
